Laboratory results from the supplement of paper PMC10849652.
The list shows a part of the results.

Chains of the proteins cited; added tags and fusions are not shown. Lines headed by an entry give the natural chain unless they say otherwise; changes in a name come on top.
UniProt Q9BTT4: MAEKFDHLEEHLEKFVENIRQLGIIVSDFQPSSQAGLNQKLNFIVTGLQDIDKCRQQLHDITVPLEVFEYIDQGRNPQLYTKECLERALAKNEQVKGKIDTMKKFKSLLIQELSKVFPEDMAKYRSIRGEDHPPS
UniProt Q6ZNC8: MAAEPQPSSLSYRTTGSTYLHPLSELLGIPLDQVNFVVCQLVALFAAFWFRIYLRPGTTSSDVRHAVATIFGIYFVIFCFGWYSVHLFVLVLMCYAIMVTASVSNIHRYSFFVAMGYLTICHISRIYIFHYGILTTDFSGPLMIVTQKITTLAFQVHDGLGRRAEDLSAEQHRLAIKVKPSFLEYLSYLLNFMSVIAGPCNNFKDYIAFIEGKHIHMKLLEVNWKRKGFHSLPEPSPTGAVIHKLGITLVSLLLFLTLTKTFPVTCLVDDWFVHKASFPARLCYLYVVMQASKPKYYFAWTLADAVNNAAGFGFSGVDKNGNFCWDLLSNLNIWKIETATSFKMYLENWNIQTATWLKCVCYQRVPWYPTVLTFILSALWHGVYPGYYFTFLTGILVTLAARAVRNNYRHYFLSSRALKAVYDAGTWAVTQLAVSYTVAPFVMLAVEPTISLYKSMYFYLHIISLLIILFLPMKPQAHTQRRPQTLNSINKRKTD
UniProt Q68D91: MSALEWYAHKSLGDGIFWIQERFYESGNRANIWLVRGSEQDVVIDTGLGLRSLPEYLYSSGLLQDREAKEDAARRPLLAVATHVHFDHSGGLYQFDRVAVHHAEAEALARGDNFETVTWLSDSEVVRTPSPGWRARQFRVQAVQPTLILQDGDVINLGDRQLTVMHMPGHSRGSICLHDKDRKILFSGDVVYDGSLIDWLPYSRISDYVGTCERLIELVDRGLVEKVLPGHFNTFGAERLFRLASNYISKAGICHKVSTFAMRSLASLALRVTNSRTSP
UniProt Q9P086: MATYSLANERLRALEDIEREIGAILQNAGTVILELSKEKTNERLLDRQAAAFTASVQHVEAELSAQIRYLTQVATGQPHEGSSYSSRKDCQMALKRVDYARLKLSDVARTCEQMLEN
UniProt Q9BTE3: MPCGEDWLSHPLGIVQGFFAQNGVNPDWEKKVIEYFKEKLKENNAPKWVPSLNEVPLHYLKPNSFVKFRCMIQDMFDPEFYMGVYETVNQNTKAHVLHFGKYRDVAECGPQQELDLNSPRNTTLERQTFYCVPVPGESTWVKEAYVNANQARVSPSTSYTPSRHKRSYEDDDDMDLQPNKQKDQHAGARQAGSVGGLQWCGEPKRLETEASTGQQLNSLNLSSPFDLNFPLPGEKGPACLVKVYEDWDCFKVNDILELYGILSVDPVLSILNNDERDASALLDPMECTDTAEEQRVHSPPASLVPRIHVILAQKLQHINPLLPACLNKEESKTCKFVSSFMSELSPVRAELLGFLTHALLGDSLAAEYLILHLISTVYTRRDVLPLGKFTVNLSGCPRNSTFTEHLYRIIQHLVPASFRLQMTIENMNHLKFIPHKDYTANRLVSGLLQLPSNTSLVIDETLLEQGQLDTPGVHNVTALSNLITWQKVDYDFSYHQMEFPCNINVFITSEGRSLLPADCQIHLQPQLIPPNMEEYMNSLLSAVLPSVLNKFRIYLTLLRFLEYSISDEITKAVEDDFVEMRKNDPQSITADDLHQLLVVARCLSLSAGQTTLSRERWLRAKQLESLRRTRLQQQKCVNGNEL
UniProt P33992: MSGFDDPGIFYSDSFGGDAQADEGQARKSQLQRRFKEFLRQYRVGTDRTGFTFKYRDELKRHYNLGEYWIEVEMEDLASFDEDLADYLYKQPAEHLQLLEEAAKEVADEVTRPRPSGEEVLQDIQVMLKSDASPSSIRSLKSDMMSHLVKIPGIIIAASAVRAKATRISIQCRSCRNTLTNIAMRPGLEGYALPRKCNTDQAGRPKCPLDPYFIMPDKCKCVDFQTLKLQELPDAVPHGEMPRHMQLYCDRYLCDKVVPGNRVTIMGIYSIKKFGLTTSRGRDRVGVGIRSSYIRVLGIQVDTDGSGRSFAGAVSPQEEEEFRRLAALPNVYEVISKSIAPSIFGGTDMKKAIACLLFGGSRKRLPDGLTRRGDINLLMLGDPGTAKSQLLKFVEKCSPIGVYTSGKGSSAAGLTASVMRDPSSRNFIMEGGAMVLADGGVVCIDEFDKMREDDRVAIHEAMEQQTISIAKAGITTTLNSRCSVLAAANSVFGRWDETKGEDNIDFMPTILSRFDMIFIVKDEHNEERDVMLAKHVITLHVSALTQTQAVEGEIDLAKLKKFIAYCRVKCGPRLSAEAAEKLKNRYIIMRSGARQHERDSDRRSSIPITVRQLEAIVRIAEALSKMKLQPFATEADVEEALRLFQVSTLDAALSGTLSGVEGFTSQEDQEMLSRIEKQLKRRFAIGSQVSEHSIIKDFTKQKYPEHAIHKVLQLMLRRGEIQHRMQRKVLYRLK
UniProt Q9HCE5: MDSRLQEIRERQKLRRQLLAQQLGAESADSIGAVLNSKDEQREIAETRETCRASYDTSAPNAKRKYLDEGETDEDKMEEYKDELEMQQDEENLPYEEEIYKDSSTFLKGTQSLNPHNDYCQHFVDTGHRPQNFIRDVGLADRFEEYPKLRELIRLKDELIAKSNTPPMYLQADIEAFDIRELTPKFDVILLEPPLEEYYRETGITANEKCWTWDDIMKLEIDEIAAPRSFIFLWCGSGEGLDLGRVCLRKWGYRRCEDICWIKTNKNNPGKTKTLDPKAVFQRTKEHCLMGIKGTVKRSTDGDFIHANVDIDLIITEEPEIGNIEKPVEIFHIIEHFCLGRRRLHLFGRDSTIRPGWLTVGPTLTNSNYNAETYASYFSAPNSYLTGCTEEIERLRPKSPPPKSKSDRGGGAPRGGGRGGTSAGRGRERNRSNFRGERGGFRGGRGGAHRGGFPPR
UniProt Q16626: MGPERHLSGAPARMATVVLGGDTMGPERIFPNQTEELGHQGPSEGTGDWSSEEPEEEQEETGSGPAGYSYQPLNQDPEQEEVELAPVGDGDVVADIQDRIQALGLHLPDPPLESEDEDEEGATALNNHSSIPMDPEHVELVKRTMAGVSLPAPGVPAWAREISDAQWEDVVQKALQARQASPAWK
UniProt Q6ZWT7: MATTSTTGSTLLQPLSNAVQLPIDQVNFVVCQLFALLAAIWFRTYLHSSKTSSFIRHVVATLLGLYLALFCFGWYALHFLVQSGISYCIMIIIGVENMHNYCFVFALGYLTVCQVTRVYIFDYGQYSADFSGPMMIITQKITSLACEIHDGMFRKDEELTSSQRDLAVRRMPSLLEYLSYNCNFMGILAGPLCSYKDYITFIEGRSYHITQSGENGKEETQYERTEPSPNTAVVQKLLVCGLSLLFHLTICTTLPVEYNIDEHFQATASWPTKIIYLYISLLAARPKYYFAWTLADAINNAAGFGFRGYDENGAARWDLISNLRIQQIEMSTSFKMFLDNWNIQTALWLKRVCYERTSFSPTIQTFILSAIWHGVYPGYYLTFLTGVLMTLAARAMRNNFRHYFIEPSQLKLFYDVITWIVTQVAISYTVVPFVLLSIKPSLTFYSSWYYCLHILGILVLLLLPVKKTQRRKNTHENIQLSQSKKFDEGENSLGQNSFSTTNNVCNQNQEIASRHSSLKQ
UniProt O95983: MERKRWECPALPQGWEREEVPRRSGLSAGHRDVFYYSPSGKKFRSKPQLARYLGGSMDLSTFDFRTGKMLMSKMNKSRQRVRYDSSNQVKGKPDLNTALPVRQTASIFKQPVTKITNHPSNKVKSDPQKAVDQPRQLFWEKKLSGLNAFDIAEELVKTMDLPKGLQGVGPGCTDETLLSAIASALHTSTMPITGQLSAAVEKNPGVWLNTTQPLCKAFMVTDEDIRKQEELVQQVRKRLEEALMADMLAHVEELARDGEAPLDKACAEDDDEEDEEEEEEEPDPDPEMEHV
UniProt P43243: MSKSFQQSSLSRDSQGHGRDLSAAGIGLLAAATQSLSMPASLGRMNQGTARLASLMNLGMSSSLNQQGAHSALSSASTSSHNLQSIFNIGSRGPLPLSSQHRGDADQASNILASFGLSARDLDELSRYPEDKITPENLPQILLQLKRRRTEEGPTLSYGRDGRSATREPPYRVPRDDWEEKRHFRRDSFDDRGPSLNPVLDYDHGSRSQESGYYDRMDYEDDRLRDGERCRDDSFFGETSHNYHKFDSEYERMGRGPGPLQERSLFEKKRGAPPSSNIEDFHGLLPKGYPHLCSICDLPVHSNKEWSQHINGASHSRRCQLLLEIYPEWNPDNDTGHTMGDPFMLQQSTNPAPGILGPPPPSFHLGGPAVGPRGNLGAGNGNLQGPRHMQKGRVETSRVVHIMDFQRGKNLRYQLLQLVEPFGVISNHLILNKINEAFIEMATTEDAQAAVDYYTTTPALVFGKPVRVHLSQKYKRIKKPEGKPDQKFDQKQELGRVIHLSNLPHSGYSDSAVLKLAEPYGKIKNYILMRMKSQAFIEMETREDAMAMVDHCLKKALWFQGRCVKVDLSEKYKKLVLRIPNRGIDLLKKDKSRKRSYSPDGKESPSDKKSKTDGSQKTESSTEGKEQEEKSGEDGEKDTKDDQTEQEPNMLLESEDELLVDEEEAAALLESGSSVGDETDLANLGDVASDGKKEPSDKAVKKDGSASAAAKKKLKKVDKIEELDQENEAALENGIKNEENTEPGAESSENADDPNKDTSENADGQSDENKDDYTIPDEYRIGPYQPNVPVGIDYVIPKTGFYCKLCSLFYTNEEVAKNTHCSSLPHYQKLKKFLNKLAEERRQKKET
UniProt Q9BUT9: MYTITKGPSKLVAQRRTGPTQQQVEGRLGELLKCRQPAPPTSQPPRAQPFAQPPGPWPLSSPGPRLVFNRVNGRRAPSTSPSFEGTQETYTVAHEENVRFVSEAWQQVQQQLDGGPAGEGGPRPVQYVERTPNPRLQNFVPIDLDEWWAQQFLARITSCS
UniProt Q7L2J0: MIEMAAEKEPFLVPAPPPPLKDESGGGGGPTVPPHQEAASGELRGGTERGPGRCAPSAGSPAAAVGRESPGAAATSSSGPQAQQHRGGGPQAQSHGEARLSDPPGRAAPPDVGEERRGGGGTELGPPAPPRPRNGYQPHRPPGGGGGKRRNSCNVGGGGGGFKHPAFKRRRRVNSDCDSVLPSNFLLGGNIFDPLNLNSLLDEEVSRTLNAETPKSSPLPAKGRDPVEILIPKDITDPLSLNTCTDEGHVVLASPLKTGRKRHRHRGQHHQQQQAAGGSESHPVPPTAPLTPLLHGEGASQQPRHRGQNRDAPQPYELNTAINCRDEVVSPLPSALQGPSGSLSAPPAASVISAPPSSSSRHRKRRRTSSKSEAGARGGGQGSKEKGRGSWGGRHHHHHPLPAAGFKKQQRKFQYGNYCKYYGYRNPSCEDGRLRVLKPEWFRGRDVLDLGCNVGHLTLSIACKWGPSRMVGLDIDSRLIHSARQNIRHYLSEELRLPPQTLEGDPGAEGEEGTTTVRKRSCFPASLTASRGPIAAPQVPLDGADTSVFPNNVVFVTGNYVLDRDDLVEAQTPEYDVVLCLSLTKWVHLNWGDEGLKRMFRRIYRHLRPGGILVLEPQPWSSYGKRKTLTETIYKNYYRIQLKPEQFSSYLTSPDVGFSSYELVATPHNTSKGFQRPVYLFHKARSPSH
UniProt Q9H1U4: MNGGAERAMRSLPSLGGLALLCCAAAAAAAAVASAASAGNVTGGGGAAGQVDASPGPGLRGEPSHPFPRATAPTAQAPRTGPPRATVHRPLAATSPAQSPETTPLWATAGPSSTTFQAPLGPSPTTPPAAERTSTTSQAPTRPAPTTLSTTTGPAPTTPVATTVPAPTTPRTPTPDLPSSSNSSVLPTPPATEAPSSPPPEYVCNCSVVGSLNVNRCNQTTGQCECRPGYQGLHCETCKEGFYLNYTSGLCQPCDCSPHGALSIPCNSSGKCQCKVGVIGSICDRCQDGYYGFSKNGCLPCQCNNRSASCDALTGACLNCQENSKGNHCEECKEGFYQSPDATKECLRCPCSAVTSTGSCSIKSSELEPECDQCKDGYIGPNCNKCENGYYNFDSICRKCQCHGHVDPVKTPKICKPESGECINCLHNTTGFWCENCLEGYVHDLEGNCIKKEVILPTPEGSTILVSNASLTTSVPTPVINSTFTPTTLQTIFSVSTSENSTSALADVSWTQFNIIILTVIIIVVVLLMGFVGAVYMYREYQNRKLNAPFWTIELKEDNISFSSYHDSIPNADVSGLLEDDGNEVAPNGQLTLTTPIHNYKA
UniProt Q9NR56: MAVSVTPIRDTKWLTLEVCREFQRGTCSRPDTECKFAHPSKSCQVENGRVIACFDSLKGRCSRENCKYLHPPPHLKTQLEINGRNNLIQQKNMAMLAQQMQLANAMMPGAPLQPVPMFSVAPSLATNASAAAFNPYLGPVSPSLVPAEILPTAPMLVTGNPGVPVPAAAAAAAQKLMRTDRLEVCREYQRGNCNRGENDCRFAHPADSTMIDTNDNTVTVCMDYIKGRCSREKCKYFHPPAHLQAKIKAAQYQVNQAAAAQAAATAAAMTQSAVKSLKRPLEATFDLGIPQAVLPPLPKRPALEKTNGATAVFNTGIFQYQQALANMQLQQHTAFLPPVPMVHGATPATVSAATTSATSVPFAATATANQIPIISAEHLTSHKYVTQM

Key:
Experiment in all cases: log2 fold change, soluble protein after heating vs DMSO (PISA); higher = thermal stabilisation; K562 lysate, 10 uM; active = over 0.2 and 3.5 SD of the protein, either way, in both replicates (recomputed)
[1] = compound: C1=CC=C(C=C1)[C@H](COC2=CC3=C(C=C2)NC(=O)N3)NC(=O)C4=CC=CN(C4=O)CC5=CC(=C(C=C5)F)F
Outline: (§1)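 K562 pellets were dounce-homogenised in PBS pH 7.4 with 1 mM MgCl2, and the crude extract at 1 mg/mL protein was treated with 10 μM compound for 30 min. Aliquots were heated for 3 min across 48°C-58°C, pooled, and brought to 0.5% NP-40 at 4°C; soluble protein was the supernatant after 21,000xg for 90 min. Soluble protein was quantified by TMTpro 16plex LC-MS/MS with channel sums equalised, and reported as log2 fold change in thermal stability against DMSO controls, with values from duplicates.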

[2] = compound: CC1=C(SC2=C1C(=N[C@H](C3=NN=C(N32)C)CC(=O)N)C4=CC=C(C=C4)Cl)C
Outline: as §1

[3] = compound: CC1=C2C(=CC=C1)N=C(N(C2=O)C3=CC=CC=C3C)CN4C=NC5=C(N=CN=C54)N
Outline: as §1

[4] = compound: Cc1sc2c(c1C)C(c1ccc(Cl)cc1)=N[C@@H](CC(=O)OC(C)(C)C)c1nnc(C)n1-2
Outline: as §1

[5] = compound: c1ccc([C@@H]2C[C@H]2NC2CCNCC2)cc1
Outline: as §1

Measured: log2 fold change

MED10 (UniProt Q9BTT4)
inactive: [1] 0.038 | [2] -0.033 | [3] -0.04 | [4] 0.015 | [5] -0.009

MESD (UniProt Q14696)
inactive: [1] 0.018 | [2] -0.012 | [3] -0.038 | [4] -0.058 | [5] -0.018

MED15 (UniProt Q96RN5)
inactive: [1] -0.002 | [2] 0.043 | [3] 0.044 | [4] 0.001 | [5] 0.032

MCFD2 (UniProt Q8NI22)
inactive: [1] -0.079 | [2] -0.189 | [3] 0 | [4] 0.008 | [5] 0.051

METTL5 (UniProt H0YFV5)
inactive: [1] 0.066 | [2] 0.004

MED1 (UniProt Q15648)
inactive: [1] 0.002 | [2] 0.033 | [3] 0.041 | [4] -0.017 | [5] 0.003

MED12 isoform 2 (UniProt Q93074)
inactive: [1] 0.013 | [2] -0.024 | [3] -0.019 | [4] 0.042 | [5] 0.031

MCUR1 (UniProt Q96AQ8)
inactive: [1] 0.002 | [2] -0.004 | [3] -0.005 | [4] -0.068 | [5] 0.01

MED18 (UniProt Q9BUE0)
inactive: [1] 0.035 | [2] -0.037 | [3] 0.001 | [4] 0 | [5] 0.003

MDP1 (UniProt Q86V88)
inactive: [1] 0.09 | [2] 0.007 | [3] 0.039 | [4] -0.005 | [5] 0.03

MFGE8 (UniProt Q08431)
inactive: [1] 0.012 | [2] 0.024 | [3] 0.006 | [4] 0.1 | [5] -0.071

MAVS (UniProt Q7Z434)
inactive: [1] -0.027 | [2] -0.014 | [3] -0.006 | [4] -0.016 | [5] -0.004

MCAT (UniProt Q8IVS2)
inactive: [1] -0.02 | [2] 0.062 | [3] -0.008 | [4] 0.029 | [5] -0.008

MEF2C isoform 5 (UniProt Q06413)
inactive: [1] 0.016 | [2] -0.041 | [3] -0.005 | [4] -0.124 | [5] -0.017

MED20 (UniProt Q9H944)
inactive: [1] -0.013 | [2] -0.023 | [3] -0.055 | [4] 0.044 | [5] 0.012

Looked up one by one from the list above, 4 records:
MED10 (UniProt Q9BTT4)
inactive: [1] 0.038 | [2] -0.033 | [3] -0.04 | [4] 0.015 | [5] -0.009

MED15 (UniProt Q96RN5)
inactive: [1] -0.002 | [2] 0.043 | [3] 0.044 | [4] 0.001 | [5] 0.032

MCUR1 (UniProt Q96AQ8)
inactive: [1] 0.002 | [2] -0.004 | [3] -0.005 | [4] -0.068 | [5] 0.01

MESD (UniProt Q14696)
inactive: [1] 0.018 | [2] -0.012 | [3] -0.038 | [4] -0.058 | [5] -0.018

(continued)

MCM3 isoform 2 (UniProt P25205)
inactive: [1] -0.006 | [2] -0.003 | [3] -0.013 | [4] 0.028 | [5] 0.015

MED22 isoform 2 (UniProt Q15528)
inactive: [1] 0.08 | [2] -0.025 | [3] 0.014 | [4] 0.011 | [5] 0.014

MED13 (UniProt Q9UHV7)
inactive: [1] -0.021 | [2] 0.02 | [3] -0.041 | [4] -0.01 | [5] 0.074

MBOAT1 (UniProt Q6ZNC8)
inactive: [1] 0.066 | [2] -0.045 | [3] -0.075

MEIS2 (UniProt O14770)
inactive: [1] 0.032 | [2] 0.02 | [3] 0.048 | [4] -0.038 | [5] 0.015

MAZ isoform 2 (UniProt P56270)
inactive: [1] 0.079 | [2] -0.002 | [3] -0.179 | [4] 0.137 | [5] -0.096

MECR (UniProt Q9BV79)
inactive: [1] -0.001 | [2] 0.013 | [3] 0.047 | [4] -0.048 | [5] 0.005

MBLAC2 (UniProt Q68D91)
inactive: [1] -0.011 | [2] -0.005 | [3] 0.001 | [4] 0.013 | [5] -0.033

MED11 (UniProt Q9P086)
inactive: [1] 0.001 | [2] 0.061 | [3] -0.12 | [4] 0.319

MCMBP isoform 2 (UniProt Q9BTE3)
inactive: [1] 0.045 | [2] 0.02 | [3] 0.007 | [4] 0.018

MEAF6 isoform 3 (UniProt Q9HAF1)
inactive: [1] 0.048 | [2] 0.039 | [3] 0.008 | [4] 0.034 | [5] -0.125

METTL25 (UniProt Q8N6Q8)
inactive: [1] 0.08 | [2] 0.031 | [3] -0.047 | [4] 0.014

METTL5 (UniProt Q9NRN9)
inactive: [1] 0.04 | [2] -0.006 | [3] -0.011 | [4] -0.014 | [5] -0.035

ME3 (UniProt Q16798)
inactive: [1] 0.023 | [2] 0.031 | [3] 0.054 | [4] -0.184 | [5] -0.154

MCM5 (UniProt P33992)
inactive: [1] 0.016 | [2] 0.009 | [3] 0.009 | [4] -0.011 | [5] -0.017

METAP2 (UniProt P50579)
inactive: [1] 0.026 | [2] -0.025 | [3] 0.024 | [4] 0.044 | [5] -0.107

METTL14 (UniProt Q9HCE5)
inactive: [1] 0.019 | [2] 0.003 | [3] -0.002 | [4] 0.028 | [5] 0.024

MED6 (UniProt O75586)
inactive: [1] 0.03 | [2] -0.16 | [3] 0.05 | [4] -0.268 | [5] 0.009

MDH1 isoform 3 (UniProt P40925)
inactive: [1] 0 | [2] 0.011 | [3] -0.007 | [4] 0.001 | [5] 0.005

MBD2 (UniProt Q9UBB5)
inactive: [1] 0.042 | [2] 0.008 | [3] -0.028 | [4] 0.065 | [5] 0.027

MEA1 (UniProt Q16626)
inactive: [1] 0.064 | [2] 0.007 | [3] -0.045 | [4] -0.008 | [5] -0.025

MBOAT2 (UniProt Q6ZWT7)
inactive: [1] -0.011 | [2] 0 | [3] 0.121 | [4] -0.022 | [5] -0.017

ME2 (UniProt P23368)
inactive: [1] -0.011 | [2] 0.036 | [3] 0.004 | [4] 0.071 | [5] -0.009

MBNL1 (UniProt C9JP00)
inactive: [1] -0.073 | [2] 0.094 | [3] -0.022 | [4] 0.011 | [5] 0.088

METTL16 (UniProt Q86W50)
inactive: [1] 0.031 | [2] -0.005 | [3] -0.002 | [4] 0.013 | [5] 0.008

MBD3 (UniProt O95983)
inactive: [1] 0.011 | [2] 0.005 | [3] -0.008 | [4] -0.021 | [5] -0.036

MDN1 (UniProt Q9NU22)
inactive: [1] -0.025 | [2] 0.03 | [3] 0.05 | [4] -0.037 | [5] -0.056

MED27 (UniProt Q6P2C8)
inactive: [1] 0.036 | [2] -0.01 | [3] 0.024 | [4] -0.049 | [5] 0.008

METAP1 (UniProt P53582)
inactive: [1] -0.017 | [2] 0.025 | [3] -0.003 | [4] 0.044 | [5] -0.095

MATR3 (UniProt P43243)
inactive: [1] 0.07 | [2] 0.038 | [3] -0.007 | [4] 0.034 | [5] -0.042

METTL2A (UniProt Q96IZ6)
inactive: [1] 0.003 | [2] -0.004 | [3] 0.046 | [4] 0 | [5] 0.106

MCRIP2 (UniProt Q9BUT9)
inactive: [1] 0.024 | [2] 0.019 | [3] 0.031 | [4] 0.027 | [5] -0.025

MED16 (UniProt Q9Y2X0)
inactive: [1] 0.019 | [2] 0.022 | [3] 0.029 | [4] 0.001 | [5] 0.087

MEPCE (UniProt Q7L2J0)
inactive: [1] 0.027 | [2] -0.01 | [3] -0.037 | [4] 0.031 | [5] 0.018

METAP1D (UniProt Q6UB28)
inactive: [1] 0.036 | [2] 0.007 | [3] -0.104 | [4] 0.026 | [5] -0.007

MEGF9 (UniProt Q9H1U4)
inactive: [1] -0.204 | [2] -0.081 | [3] 0.018 | [4] 0.013 | [5] 0.161

MBNL1 isoform 5 (UniProt Q9NR56)
inactive: [1] -0.045 | [2] 0.003 | [3] -0.048 | [4] 0.032 | [5] -0.099

MCM6 (UniProt Q14566)
inactive: [1] -0.016 | [2] 0 | [3] 0.018 | [4] 0.013 | [5] -0.002

MEF2A (UniProt Q02078)
inactive: [1] 0.015 | [2] 0.067 | [3] 0.035 | [4] -0.023 | [5] -0.035
